This passage reports difficulty met and step yield results from US4910296A (priority 1980, dated 1990).

The data set in a line: general procedure: solution-phase peptide synthesis; mixed anhydride (isobutyloxycarbonyl chloride) for stepwise couplings; dicyclohe. Particulars: coupling step.

Regarding “Ddz-Asp(OBu^t)-Ala-Ala-Val-Asp(OBu^t)-OBzl”, the difficulty met entry is “(f) Ddz-(2-6)-OBzl, Ddz-Asp(OBu^t)-Ala-Ala-Val-Asp(OBu^t)-OBzl: In the conventional reaction of 11.6 mmol of Ddz-Asp-(OBu^t)-OH with 5.8 mmol of Ddz-(3-6)-OBzl, the poor solubility of the amine compon”.
In turn, “Ddz-Glu(OBu^t)-Lys(Z)-Glu(OBu^t)Val-Val-Glu(OBu^t)OMe” came in with a step yield of 87%.
The same measure, in the same setting: then “Ddz-Lys(Z)-Glu(OBu^t)-Val-Val-Glu(OBu^t)-Glu(OBu^t)-AlaOBzl”, with 58%; and “Ddz-Lys(Z)-Glu(OBu^t)-Val-Val-Glu(OBu^t)-Glu(OBu^t)OBu^t”, with 52%.
Still for that read-out and setting: in the case of “Ddz-Lys(Z)-Lys(Z)-Glu(OBu^t)-Val-Val-Glu(OBu^6)-OMe” it was 91%; in that of “Ddz-Lys(Z)Glu(OBu^t)-Lys(Z)-Glu(OBu^t)-Val-Val-Glu(OBu^t)OMe”, 60%.
